Earlier results, collected in US10772837B2, “Modified release multi-layer tablet cannabinoid formulations” (CannTab Therapeutics, Limited, priority 2017, dated 2020).

CCCCCc1cc(O)c2c(c1)OC(C)(C)[C@@H]1CCC(C)=C[C@@H]21 [Dronabinol, (−)-trans-Δ9-tetrahydrocannabinol]
duration of appetite stimulant effect (after administration): ≥ 24 h | duration of action for psychoactive effects (after oral administration): 4 to 6 h | onset of action (after oral administration): 0.5 to 1 h | peak effect (time) (after oral administration): 2 to 4 h
